This passage reports binding results from EP2028187A1 (BOARD OF REGENTS, THE UNIVERSITY OF TEXAS SYSTEM, dated 2009).

Sequences of proteins named here, by UniProt entry; tags and fusion partners are left off.
UniProt Q07075: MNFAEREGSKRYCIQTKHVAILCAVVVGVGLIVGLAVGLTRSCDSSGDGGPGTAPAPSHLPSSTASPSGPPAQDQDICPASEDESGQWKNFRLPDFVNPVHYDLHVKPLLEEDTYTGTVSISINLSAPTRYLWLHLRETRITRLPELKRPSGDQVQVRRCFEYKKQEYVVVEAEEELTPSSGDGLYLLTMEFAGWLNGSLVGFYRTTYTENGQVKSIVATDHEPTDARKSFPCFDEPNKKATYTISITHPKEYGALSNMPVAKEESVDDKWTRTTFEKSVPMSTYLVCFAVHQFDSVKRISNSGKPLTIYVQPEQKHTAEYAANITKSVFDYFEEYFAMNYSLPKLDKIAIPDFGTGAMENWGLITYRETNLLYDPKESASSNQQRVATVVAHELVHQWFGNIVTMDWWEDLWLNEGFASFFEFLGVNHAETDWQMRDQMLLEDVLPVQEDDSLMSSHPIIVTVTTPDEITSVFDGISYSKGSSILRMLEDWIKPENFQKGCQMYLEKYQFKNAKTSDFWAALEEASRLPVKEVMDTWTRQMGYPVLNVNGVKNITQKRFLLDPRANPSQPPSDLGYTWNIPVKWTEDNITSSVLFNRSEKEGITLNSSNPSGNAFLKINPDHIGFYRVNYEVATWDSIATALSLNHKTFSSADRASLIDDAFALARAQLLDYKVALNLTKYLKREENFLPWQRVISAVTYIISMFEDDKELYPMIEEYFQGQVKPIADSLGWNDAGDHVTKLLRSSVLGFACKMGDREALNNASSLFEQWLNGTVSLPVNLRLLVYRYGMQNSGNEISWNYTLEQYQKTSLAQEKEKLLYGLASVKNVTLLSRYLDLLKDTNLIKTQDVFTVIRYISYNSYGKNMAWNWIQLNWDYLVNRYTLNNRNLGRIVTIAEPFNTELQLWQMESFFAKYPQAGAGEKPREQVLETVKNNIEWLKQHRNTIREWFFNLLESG

Results are given in words; binding and its absence hold for the method and conditions named. Some entries that bind do so weakly or less than the wild type.

Assay [1] deals with Immunocaptured APA (from SK-RC-49/APA cell lysate, on mAb RC38-coated microwells) (UniProt Q07075). Nature of the assay: phage binding to APA immunocaptured on RC38-coated microwells (not shown).
Assay [2] deals with Aminopeptidase A (APA, EC 3.4.11.7) on cells (UniProt Q07075). Put plainly: competition of soluble peptide with phage binding to SK-RC-49/APA cells (not shown).

Turning to CYNLCIRECESICGADGACWTWCADGCSRSC [phage displaying … (SEQ ID NO:125)], the binding entry in assay [1] is recorded as “binds”.

As to CPKVCPRECESNC [phage displaying … (SEQ ID NO:127)], the binding result in assay [1] is reported as “binds”.

CPRECESIC (cyclic peptide, spontaneously cyclized in non-reducing conditions) [… (SEQ ID NO:123) soluble peptide]: in assay [2], the binding result was “binds”.

In the case of CLGQCASICVNDC [phage displaying … (SEQ ID NO:126)], in assay [1], the binding entry is listed as “binds”.
